Reference: PMC9268414, “Screening an In-House Isoquinoline Alkaloids Library for New Blockers of Voltage-Gated Na^+ Channels Using Voltage Sensor Fluorescent Probes: Hits and Biases” (Molecules, 2022)

Tested on: NaV channels endogenously expressed in GH3b6 cells
Assay: FRET voltage sensor probe (VSP) assay of BTX-induced depolarization in GH3b6 cells
Assay type: cell-based, rat
Conditions: BTX 1 µM, n = 6

Compound	Hill Slope, inhibition of BTX-evoked VSP signal
COc1cccc2c1C(=O)c1nccc3cc4c(c-2c13)OCO4 [IA14, oxostephanine]	0.78 ± 0.12
O=C1c2ccccc2-c2c3c(cc4ccnc1c24)OCO3 [IA39, liriodenine]	0.91 ± 0.19
COc1cc2c3cc1Oc1cc(ccc1O)CC1c4c(cc(OC)c(O)c4Oc4ccc(cc4)CC3N(C)CC2)CCN1C (stereo not shown) [IA52, bebeerine]	1.04 ± 0.29
protopine [IA69]	0.99 ± 0.19
